# Primary screen of a compound library

The chains behind the UniProt entries cited, without tags or fusion partners. Residues count along the entry.
UniProt P9WFT3, whole entry: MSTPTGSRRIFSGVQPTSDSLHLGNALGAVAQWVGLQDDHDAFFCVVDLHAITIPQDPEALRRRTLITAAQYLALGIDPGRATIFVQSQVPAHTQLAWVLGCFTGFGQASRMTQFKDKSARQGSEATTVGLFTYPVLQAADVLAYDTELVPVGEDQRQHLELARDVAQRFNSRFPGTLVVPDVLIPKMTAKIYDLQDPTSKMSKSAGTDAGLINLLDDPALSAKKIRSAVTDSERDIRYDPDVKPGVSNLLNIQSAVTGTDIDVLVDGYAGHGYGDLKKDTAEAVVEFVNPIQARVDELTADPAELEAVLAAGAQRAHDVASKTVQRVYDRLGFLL
UniProt I6X8D2, whole entry: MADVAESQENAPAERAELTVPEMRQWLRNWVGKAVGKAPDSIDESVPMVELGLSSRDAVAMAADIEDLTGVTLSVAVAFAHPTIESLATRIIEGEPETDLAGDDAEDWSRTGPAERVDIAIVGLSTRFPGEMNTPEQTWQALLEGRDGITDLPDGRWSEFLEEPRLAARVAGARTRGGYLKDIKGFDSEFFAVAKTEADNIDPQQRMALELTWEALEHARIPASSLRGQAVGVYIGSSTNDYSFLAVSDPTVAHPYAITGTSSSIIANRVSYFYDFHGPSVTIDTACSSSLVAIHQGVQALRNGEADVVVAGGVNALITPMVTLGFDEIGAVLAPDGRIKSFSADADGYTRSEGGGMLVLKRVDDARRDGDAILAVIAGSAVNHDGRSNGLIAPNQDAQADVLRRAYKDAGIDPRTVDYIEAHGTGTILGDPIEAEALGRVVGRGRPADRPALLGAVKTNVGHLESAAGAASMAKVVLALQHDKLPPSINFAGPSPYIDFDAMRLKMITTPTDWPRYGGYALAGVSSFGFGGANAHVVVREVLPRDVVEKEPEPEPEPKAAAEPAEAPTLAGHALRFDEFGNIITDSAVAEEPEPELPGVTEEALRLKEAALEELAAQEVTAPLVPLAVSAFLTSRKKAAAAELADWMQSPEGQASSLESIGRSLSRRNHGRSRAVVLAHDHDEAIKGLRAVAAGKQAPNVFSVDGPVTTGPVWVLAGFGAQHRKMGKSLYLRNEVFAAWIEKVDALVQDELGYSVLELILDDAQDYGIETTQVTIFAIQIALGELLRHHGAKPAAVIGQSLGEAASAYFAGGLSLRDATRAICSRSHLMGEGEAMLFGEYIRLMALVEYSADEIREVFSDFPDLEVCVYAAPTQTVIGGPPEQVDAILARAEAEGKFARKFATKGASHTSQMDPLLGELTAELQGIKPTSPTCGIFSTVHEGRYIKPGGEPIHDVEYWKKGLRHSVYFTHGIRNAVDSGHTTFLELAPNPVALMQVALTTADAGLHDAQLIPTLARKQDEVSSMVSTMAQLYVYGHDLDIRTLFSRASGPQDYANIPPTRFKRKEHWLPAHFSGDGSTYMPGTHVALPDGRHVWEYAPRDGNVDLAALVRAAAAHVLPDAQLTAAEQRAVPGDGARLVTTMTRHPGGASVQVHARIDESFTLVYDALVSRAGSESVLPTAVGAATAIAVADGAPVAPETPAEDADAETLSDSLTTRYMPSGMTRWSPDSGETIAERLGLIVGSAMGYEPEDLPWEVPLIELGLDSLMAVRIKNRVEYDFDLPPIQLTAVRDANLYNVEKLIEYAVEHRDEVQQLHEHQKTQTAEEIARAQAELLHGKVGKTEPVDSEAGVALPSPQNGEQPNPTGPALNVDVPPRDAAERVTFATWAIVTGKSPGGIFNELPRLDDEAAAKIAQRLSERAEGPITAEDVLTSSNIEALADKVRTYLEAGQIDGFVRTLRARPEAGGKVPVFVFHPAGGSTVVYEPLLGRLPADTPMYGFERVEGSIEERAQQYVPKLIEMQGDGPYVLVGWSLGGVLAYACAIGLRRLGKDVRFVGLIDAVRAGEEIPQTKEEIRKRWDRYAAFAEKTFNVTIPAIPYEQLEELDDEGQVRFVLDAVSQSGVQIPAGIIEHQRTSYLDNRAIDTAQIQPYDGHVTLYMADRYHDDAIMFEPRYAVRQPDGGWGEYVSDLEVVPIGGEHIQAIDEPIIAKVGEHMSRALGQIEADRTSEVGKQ
UniProt Q4DA54, 1-478: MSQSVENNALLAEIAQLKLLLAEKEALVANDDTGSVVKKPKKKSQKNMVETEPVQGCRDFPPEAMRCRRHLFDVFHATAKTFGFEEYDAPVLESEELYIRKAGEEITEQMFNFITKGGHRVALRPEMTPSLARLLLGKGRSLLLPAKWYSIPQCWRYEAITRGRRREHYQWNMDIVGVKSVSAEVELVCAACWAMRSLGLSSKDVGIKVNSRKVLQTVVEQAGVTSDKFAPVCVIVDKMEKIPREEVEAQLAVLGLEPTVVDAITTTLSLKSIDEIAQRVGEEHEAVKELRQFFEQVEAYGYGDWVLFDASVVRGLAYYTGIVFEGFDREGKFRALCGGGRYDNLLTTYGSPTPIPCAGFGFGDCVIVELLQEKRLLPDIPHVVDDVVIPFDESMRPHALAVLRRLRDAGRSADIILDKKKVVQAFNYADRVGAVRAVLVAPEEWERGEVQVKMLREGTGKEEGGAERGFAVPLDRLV

A: 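Tryptophan-tRNA ligase, Mycobacterium tuberculosis (UniProt P9WFT3). Enzyme assay of tryptophanyl-tRNA synthetase; the read-out is not stated. Tested at 10 µM. Direction is not recorded; retested compounds ran higher, which suggests that high means inhibition. Of about 65,000 compounds tested this way, about 64 (0.098%) reached 50% or more in at least one test.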
B: 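Cell assay of Leishmania donovani living inside macrophages; the read-out is not stated. Compounds at 30 µM. Higher reads as stronger inhibition (inferred: compounds with an IC50 in retests scored well above the rest). Size under these conditions: about 69,000 compounds, about 1,000 of them at 50% or above in at least one test.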
C: 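Polyketide synthase Pks13, Mycobacterium tuberculosis (UniProt I6X8D2). Enzyme assay of the thioesterase domain of polyketide synthase 13; the read-out is not stated. Tested at 30 µM. The record gives no direction; the compounds picked for IC50 retests had high values, so higher reads as stronger inhibition. Of about 67,000 compounds tested this way, about 300 (0.46%) reached 50% or more in at least one test.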
D: 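Enzyme assay of histidyl-tRNA synthetase; the read-out is not stated. Target: Histidine-tRNA ligase, Trypanosoma cruzi CL Brener (UniProt Q4DA54). Concentration: 30 µM. Direction is inferred from retests: higher values go with stronger inhibition. Of about 69,000 compounds tested this way, about 31 (0.045%) reached 50% or more in at least one test.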

Each number is a percent effect as filed. How 0% and 100% were set is not recorded. Most values in the screen are low, and negative values occur. Compounds were drawn at random from those tested, without regard to their results. Two or more numbers in one place are separate tests of the same structure; such repeats can differ widely. A dash means the value is not listed here; it may have been measured.

structure | A | B | C | D
OCC1(O)CCN(Cc2ccc(C3CCCCO3)o2)CC1 (centres undefined) | -1.149 | 33.64 | -29.76 | 2.89
CC(C)CCN1CCN(CC(=O)Nc2ccc3nsnc3c2)CC1 | -6.553 | -21.84 | 0.6618 | -4.663
CN(Cc1cccnc1)C[C@@H]1OC[C@H]2CN(Cc3ccoc3)CC[C@H]21 | -3.823 | - | -20.72 | 11.96
COc1ccc(F)c(CN2CCCC(O)(CNCc3ccoc3)C2=O)c1 (centres undefined) | -2.855 | 16.43 | -32.23 | 2.041
CC1CN(c2ncnc3cccc(F)c23)CCO1 (centres undefined) | 10.36 | 18.46 | -1.65 | -4.433
Cc1nnc(CN(C)C2CCN(c3cccc(-c4cscn4)c3)CC2)o1 | -4.326 | 16.73 | -3.061 | 4.712
N#Cc1ccc(Cl)cc1NCC1CCOC1 (centres undefined) | 5.905 | 3.403 | -7.599 | 8.04
O=C(c1ccnnc1)N1CCCn2nnc(COCC3CC3)c2C1 | 3.315 | -13.5 | -32.78 | 3.743
COc1c(C(=O)N2CCOCC2)cnc2c1c(C)nn2C | - | 14.8 | -6.723 | 1.136
CNC(=O)c1ccc(CN2CCC(N(C)Cc3noc(C)n3)C2)cc1 (centres undefined) | 4.457 | 16.5 | -14.38 | 1.132
Cc1nc(CN2CCOCC3(CCN(c4ncccn4)CC3)C2)cs1.O=C(O)C(F)(F)F | - | -22.79 | - | -
CS(=O)(=O)NCc1cc(-c2cc(F)cc(F)c2)nc(N2CCCC2)n1 | - | 27.13 and -4.491 | 22.08 | 12.43
COCc1cc(CNC(=O)c2c(C)cc(C)[nH]c2=O)n[nH]1 | 0.1564 | 29.48 | -11.71 | 5.102
O=C(O)C(F)(F)F.[H][C@@]12CCCO[C@]1([H])[C@H](NC(=O)c1cnccn1)CN(c1ncccn1)C2 | - | -26.77 | - | -
Cc1cnc(NC(=O)C(C)Oc2ccc3c(c2)OCO3)s1 (centres undefined) | 3.584 | -73.9 | -27.59 | 1.754
NS(=O)(=O)c1ccc(NCc2ccccc2)cc1C(F)(F)F | -4.886 | 44.12 | -13.96 | 3.911
Cc1nnc(C2CCN(C(=O)c3ccc(-n4cccc4)cc3)CC2)s1 | 3.75 | 3.78 | -9.761 | 12.95
CC(NC(=O)N1CCCC1)c1ccc(S(N)(=O)=O)cc1 (centres undefined) | 0.5442 | -3.975 | -13.34 | 1.786
[H][C@@]12COC[C@]1(COCc1cccnc1)CN(C(=O)c1cnn(C)c1)C2 | - | 5.262 | - | -
O=C(COC[C@@H]1CC[C@H]2[C@H](CCN2Cc2ccco2)O1)N1CCCC1 | -1.355 | - | 9.541 | 12.06
Cc1cc(CSc2ccccn2)on1 | -2.805 | -0.7421 | -27.71 | 2.717
CC(C)(C)c1ccn(C2(C(=O)O)CCN(c3ccncc3F)CC2)n1 | -2.794 | -16.12 | -4.109 | 6.952
CCn1cnnc1CNC(=O)c1cc(Cl)ccc1I | -8.69 | 17.18 | -13.75 | 2.817
CCN(Cc1nonc1C)C(=O)Cn1nc(C(F)(F)F)cc1C | 4.793 | -15.42 | -21.77 | 0.8696
CCC(CO)NC(=O)Nc1cc(F)ccc1SCC(F)F (centres undefined) | -0.5202 | -65.36 | -25.52 | 9.524
CCc1nnc(CN2CC(n3cccn3)C2)o1 | 4.736 | -6.606 | -14.89 | 2.646
O=C(Cc1ccc2c(c1)OCCO2)NCc1ccc(-n2cncn2)nc1 | -3.107 | 24.44 | 12.08 | 3.779
Cc1csc(CNc2cnc3c(c2)c(C)nn3C)n1 | -1.052 | 25.74 | 54.44 | -0.5181
CC(=O)N1CCCN(C(=O)NCCCNS(C)(=O)=O)CC1 | 1.56 | 27.39 | -16.99 | 3.175
COc1ccc(CNC(=O)NCCc2csc(C)n2)cn1 | 15.1 | -6.246 | -33.91 | -0.8596
CN(C)C(=O)CO[C@@H]1CC[C@H]2[C@H]1OCCN2c1ncccn1 | 2.326 | - | -29.37 | 11.83
Cc1noc(C(C)C)c1C(=O)NCCCN1CCCCCC1=O | -2.756 | -0.1643 | 0.1193 | 2.286
CCN(C)C(=O)c1cccc(S(=O)(=O)NCCc2csc(N)n2)c1 | 2.832 | 24.09 | -6.554 | 10.3
CC(C)(C)c1cc(NC(=O)C2COCCO2)n(-c2ccccn2)n1 (centres undefined) | 2.457 | -3.455 | 2.222 | -3.191
c1ccc(Cn2cc(CNCC3CCCN3c3cccnn3)cn2)cc1 (centres undefined) | -0.09747 | 18.94 | -13.64 | 9.848
COCCC(=O)N1CCCC(CCc2ccc(F)c(F)c2)C1 (centres undefined) | 1.224 | 11.76 | -18.81 | 3.571
O=C(N1CCOCC1)N1CCc2ncc(CN3CCCCC3)n2CC1.O=C(O)C(F)(F)F | - | -8.647 | - | -
Fc1cccc(N2CCCC3(C2)CN(c2cnccn2)CCO3)c1 (centres undefined) | 0.541 | 16.66 | -21.63 | 6.897
COc1ccccc1S(=O)(=O)NCC(c1cccn1C)N(C)C (centres undefined) | 3.44 | 29.49 | -1.745 | -1.02
O=C(CCc1ccccc1)N1CCN(C(=O)c2ccc[nH]2)CC1 | 0.9372 | 13.13 | -13.73 | 4.255
CC(=O)N1CCc2[nH]cnc2C12CCN(C(=O)Cc1ccccn1)CC2 | 5.294 | -31.11 and 20.01 | -7.5 | 0
Cc1cc2nc(SCC(=O)NC(C)C)n(Cc3ccco3)c(O)c-2n1 | 4.201 | 25.79 | -18.33 | -3.125
Cc1nc(C)n(CC2CN(CCOc3ccccc3C#N)CCO2)n1 (centres undefined) | 1.49 | 27.02 | - | 3.955
CN(Cc1ccc(-n2cccn2)cc1)Cc1cnc(N(C)C)nc1 | -3.32 | 21.11 | -4.376 | 5.759
Cc1cc(C(F)(F)F)cc(=O)n1Cc1nc(C(C)C)no1 | -7.831 | 22.27 | -29.18 | 8.458
[H][C@@]12COC[C@]1(CNS(C)(=O)=O)CN(C(=O)C1CC(F)(F)C1)C2 | - | 26.42 | - | -
CC(=O)N1CCC2(CC1)COCCN2CCN(C)C | 4.512 | - | -8.111 | -38.38
C1CCC(NC2CCCN(Cc3noc(C4CC4)n3)C2)C1 (centres undefined) | 1.536 | 10.13 | -20.34 | 3.077
Cc1ccc(CN2C[C@H]3C(=O)N(CC4CC4)C[C@@]3(C(=O)O)C2)c(F)c1F | 3.229 | - | 14.12 | -2.174
COCCNC(=O)Cn1cc(NC(=O)c2ccc(C(C)(C)C)cc2)cn1 | -4.361 | 26.74 | -45.41 | 4.741
Cc1ccoc1C(=O)N1Cc2c(Cn3ccnc3)nn(C)c2C1.O=C(O)C(F)(F)F | - | 12.09 | - | -
CCc1cnc(N2C[C@H]3C[C@H](C(=O)N(C)C)[C@@H](C2)O3)nc1 | -3.253 | - | -7.416 | 0.5405
Cc1ccc(CN2CCC3(CC2)CCN(C(=O)c2cccnc2)C3)o1 | - | - | -29.76 | 11.64
CC(NC(=O)CSCC#N)c1ccccc1 (centres undefined) | 3.801 | 14.83 | -17.81 | 0
Cc1ccc(NC2CCN(C(=O)c3ccc(C(N)=O)s3)CC2)nn1 | -4.827 | 9.094 | -13.22 | 2.825
COc1ccc(C2=CCN(C(=O)C3CCCN(C(C)=O)C3)CC2)cc1 (centres undefined) | -7.704 | 26.6 | 6.673 | 9.827
Cc1cccc(CN2CCn3cc(Cn4cccn4)nc3C2)n1 | -0.2766 | - | 17.43 | -1.22
CC(C)(C)c1cnc(CN2CCC(NC(=O)NC3CCCCC3)CC2)o1 | -10.5 | -4.566 | 5.946 | 8.38
CN[C@H]1CC[C@]2(CC1)CNC(=O)c1cc(C)ccc1O2 | - | 19.25 | -3.854 | 2.996
CN1CC2(CCN(Cc3cc(Cl)ccc3OCC(=O)O)CC2)OC1=O | -0.9082 | 0.0234 | -30.83 | 5.732

7 of the entries, repeated:

Result for COCCC(=O)N1CCCC(CCc2ccc(F)c(F)c2)C1 (centres undefined) was A: 1.224%; B: 11.76%; C: -18.81%; D: 3.571%.
Result for C1CCC(NC2CCCN(Cc3noc(C4CC4)n3)C2)C1 (centres undefined) was A: 1.536%; B: 10.13%; C: -20.34%; D: 3.077%.
Result for CS(=O)(=O)NCc1cc(-c2cc(F)cc(F)c2)nc(N2CCCC2)n1 was B: 27.13% and -4.491%; C: 22.08%; D: 12.43%.
Result for CC(=O)N1CCCN(C(=O)NCCCNS(C)(=O)=O)CC1 was A: 1.56%; B: 27.39%; C: -16.99%; D: 3.175%.
Result for c1ccc(Cn2cc(CNCC3CCCN3c3cccnn3)cn2)cc1 (centres undefined) was A: -0.09747%; B: 18.94%; C: -13.64%; D: 9.848%.
Result for CN(Cc1ccc(-n2cccn2)cc1)Cc1cnc(N(C)C)nc1 was A: -3.32%; B: 21.11%; C: -4.376%; D: 5.759%.
Result for NS(=O)(=O)c1ccc(NCc2ccccc2)cc1C(F)(F)F was A: -4.886%; B: 44.12%; C: -13.96%; D: 3.911%.

Data taken from ChEMBL document CHEMBL3988442, “University of Dundee, Small-Polar-MMV Screening Library” (2021).